Assay in all cases: Cytostatic activity against tumor cell lines (cell number by Coulter counter)
What all share (type): cell-based

One data set relates to human T-lymphocyte (CEM). As to conditions: for TI P. aeruginosa CEM: ratio IC50 (CEM) / BIC50 (P. aeruginosa); for TI S. Typhimurium CEM: ratio IC50 (CEM) / BIC50 (S. Typhimurium). On the procedure: (§1) The IC50 was defined as the compound concentration required to inhibit cell proliferation by 50%. The therapeutic index (TI) was calculated as the ratio of the compound concentration producing toxicity (IC50) to the concentration needed to exert the desired ‘therapeutic’ effect on biofilms of Salmonella and Pseudomonas, indicated by the BIC50 (dose needed to prevent biofilm formation by 50%). The higher the therapeutic index, the broader the safety window of the compound.
(§2) Murine leukemia (L1210), human T-lymphocyte (CEM) and human cervix carcinoma (HeLa) were suspended at 300,000–500,000 cells/mL of culture medium, and 100 µL of a cell suspension was added to 100 µL of an appropriate dilution of the test compounds in 200 µL-wells of 96-well microtiter plates. After incubation at 37 °C for two (L1210), three (CEM) or four (HeLa) days, the cell number was determined using a Coulter counter. The IC50 was defined as the compound concentration required to inhibit cell proliferation by 50%.

Another data set has as its system murine leukemia (L1210). As to conditions: for TI P. aeruginosa L1210: ratio IC50 (L1210) / BIC50 (P. aeruginosa); for TI S. Typhimurium L1210: ratio IC50 (L1210) / BIC50 (S. Typhimurium). On the procedure: as §1, §2
The test system of data set [1] is human cervix carcinoma (HeLa). As to conditions: for TI P. aeruginosa HeLa: ratio IC50 (HeLa) / BIC50 (P. aeruginosa); for TI S. Typhimurium HeLa: ratio IC50 (HeLa) / BIC50 (S. Typhimurium). The method, then: as §1, §2

With `Nc1ncc(-c2ccccc2)[nH]1` [compound 1], in the data set on human T-lymphocyte (CEM), the “TI P. aeruginosa CEM” value was 1.3 and the “TI S. Typhimurium CEM” value is 0.7. Also, in the data set on murine leukemia (L1210), the “TI P. aeruginosa L1210” value was 0.9 and the “TI S. Typhimurium L1210” value is reported as 0.5. Moreover, in data set [1], the “TI P. aeruginosa HeLa” value was found to be 2.0 and the “TI S. Typhimurium HeLa” value is recorded as 1.1.

Turning to `Nc1ncc(-c2ccc(Cl)cc2)[nH]1` [compound 2], in the data set on human T-lymphocyte (CEM), the “TI P. aeruginosa CEM” value is listed as 14.2 and the “TI S. Typhimurium CEM” value is listed as 3.1. Further, in the data set with murine leukemia (L1210), the “TI P. aeruginosa L1210” value was 22.1 and the “TI S. Typhimurium L1210” value is 4.8. Besides, in data set [1], the “TI P. aeruginosa HeLa” value is 20.7 and the “TI S. Typhimurium HeLa” value is 4.5.

With `Nc1ncc(-c2ccc([N+](=O)[O-])cc2)[nH]1` [compound 4], in the data set on human T-lymphocyte (CEM), the “TI P. aeruginosa CEM” value came out at 1.8 and the “TI S. Typhimurium CEM” value was determined as 3.6. In addition, in the data set on murine leukemia (L1210), the “TI P. aeruginosa L1210” value was determined as 2.4 and the “TI S. Typhimurium L1210” value came out at 4.7. In data set [1], the “TI P. aeruginosa HeLa” value came out at 3.1 and the “TI S. Typhimurium HeLa” value was 6.1.

`Nc1ncc(-c2ccc(Br)cc2)[nH]1` [compound 5, 5-(p-bromophenyl)-2-aminoimidazole]: in the data set with human T-lymphocyte (CEM), the “TI P. aeruginosa CEM” value turned out to be 4.3 and the “TI S. Typhimurium CEM” value is 0.3. In addition, in the data set with murine leukemia (L1210), the “TI P. aeruginosa L1210” value is reported as 3.2 and the “TI S. Typhimurium L1210” value is listed as 0.2. In addition, in data set [1], the “TI P. aeruginosa HeLa” value came to 6.8 and the “TI S. Typhimurium HeLa” value is recorded as 0.5.

For `c1ccc(-c2cnc(NC3CCCC3)[nH]2)cc1` [compound 20], in the data set with human T-lymphocyte (CEM), the “TI P. aeruginosa CEM” value stood at 8.7 and the “TI S. Typhimurium CEM” value is recorded as 5.5. In the data set with murine leukemia (L1210), the “TI P. aeruginosa L1210” value was 0.8 and the “TI S. Typhimurium L1210” value worked out at 0.5. In data set [1], the “TI P. aeruginosa HeLa” value worked out at 0.8 and the “TI S. Typhimurium HeLa” value worked out at 0.5.

For `CC(C)CNc1ncc(-c2ccc(Cl)cc2)[nH]1` [compound 22], in the data set with human T-lymphocyte (CEM), the “TI P. aeruginosa CEM” value is recorded as 330.3 and the “TI S. Typhimurium CEM” value came out at 148.7. Moreover, in the data set on murine leukemia (L1210), the “TI P. aeruginosa L1210” value is 373.7 and the “TI S. Typhimurium L1210” value was 168.2. Further, in data set [1], the “TI P. aeruginosa HeLa” value is reported as 190.6 and the “TI S. Typhimurium HeLa” value came to 85.8.

With `Clc1ccc(-c2cnc(NC3CCCC3)[nH]2)cc1` [compound 24], in the data set on human T-lymphocyte (CEM), the “TI P. aeruginosa CEM” value was determined as 43.8 and the “TI S. Typhimurium CEM” value was determined as 134.3. Besides, in the data set with murine leukemia (L1210), the “TI P. aeruginosa L1210” value came to 2.6 and the “TI S. Typhimurium L1210” value was 8.1. Also, in data set [1], the “TI P. aeruginosa HeLa” value amounted to 2.1 and the “TI S. Typhimurium HeLa” value is listed as 6.5.

Consider `CCCCNc1ncc(-c2ccc(Br)cc2)[nH]1` [compound 25], for which, in the data set on human T-lymphocyte (CEM), the “TI P. aeruginosa CEM” value worked out at 50.3 and the “TI S. Typhimurium CEM” value is listed as 69.4. In the data set with murine leukemia (L1210), the “TI P. aeruginosa L1210” value is recorded as 12.8 and the “TI S. Typhimurium L1210” value amounted to 17.7. Further, in data set [1], the “TI P. aeruginosa HeLa” value turned out to be 5.2 and the “TI S. Typhimurium HeLa” value was 7.1.

`c1ccc(-c2cn(CCCNc3ncc(-c4ccccc4)[nH]3)nn2)cc1` [compound 36]: in the data set with human T-lymphocyte (CEM), the “TI P. aeruginosa CEM” value is on record as less than 1.1 and the “TI S. Typhimurium CEM” value amounted to 12.4. For the same compound, in the data set with murine leukemia (L1210), the “TI P. aeruginosa L1210” value is given as less than 0.6 and the “TI S. Typhimurium L1210” value was 6.1. Moreover, in data set [1], the “TI P. aeruginosa HeLa” value is on record as less than 0.2 and the “TI S. Typhimurium HeLa” value came to 2.0.

For `c1ccc(-c2cn(CCCCNc3ncc(-c4ccccc4)[nH]3)nn2)cc1` [compound 37], in the data set with human T-lymphocyte (CEM), the “TI P. aeruginosa CEM” value stood at 24.2 and the “TI S. Typhimurium CEM” value was determined as 11.5. Also, in the data set on murine leukemia (L1210), the “TI P. aeruginosa L1210” value is on record as 11.5 and the “TI S. Typhimurium L1210” value came out at 5.4. Further, in data set [1], the “TI P. aeruginosa HeLa” value came out at 5.6 and the “TI S. Typhimurium HeLa” value worked out at 2.7.

Consider `Brc1ccc(-c2cnc(NCCCn3cc(C4CCCCC4)nn3)[nH]2)cc1` [compound 39], for which, in the data set with human T-lymphocyte (CEM), the “TI P. aeruginosa CEM” value amounted to 31.7 and the “TI S. Typhimurium CEM” value is reported as 47.1. In the data set on murine leukemia (L1210), the “TI P. aeruginosa L1210” value is 1.7 and the “TI S. Typhimurium L1210” value is recorded as 2.5. In addition, in data set [1], the “TI P. aeruginosa HeLa” value is on record as 1.8 and the “TI S. Typhimurium HeLa” value turned out to be 2.7.

Consider `Brc1ccc(-c2cnc(NCCCn3cc(C4CC4)nn3)[nH]2)cc1` [compound 40], for which, in the data set on human T-lymphocyte (CEM), the “TI P. aeruginosa CEM” value came to 0.5 and the “TI S. Typhimurium CEM” value came to 16.8. Moreover, in the data set with murine leukemia (L1210), the “TI P. aeruginosa L1210” value came out at 0.6 and the “TI S. Typhimurium L1210” value is listed as 21.9. In addition, in data set [1], the “TI P. aeruginosa HeLa” value stood at 0.9 and the “TI S. Typhimurium HeLa” value turned out to be 33.6.
